Source: paper PMC4275582

Biological target: T1, ITFG1-Myc (human LINKIN) (human) (UniProt Q8TB96)
T1 sequence: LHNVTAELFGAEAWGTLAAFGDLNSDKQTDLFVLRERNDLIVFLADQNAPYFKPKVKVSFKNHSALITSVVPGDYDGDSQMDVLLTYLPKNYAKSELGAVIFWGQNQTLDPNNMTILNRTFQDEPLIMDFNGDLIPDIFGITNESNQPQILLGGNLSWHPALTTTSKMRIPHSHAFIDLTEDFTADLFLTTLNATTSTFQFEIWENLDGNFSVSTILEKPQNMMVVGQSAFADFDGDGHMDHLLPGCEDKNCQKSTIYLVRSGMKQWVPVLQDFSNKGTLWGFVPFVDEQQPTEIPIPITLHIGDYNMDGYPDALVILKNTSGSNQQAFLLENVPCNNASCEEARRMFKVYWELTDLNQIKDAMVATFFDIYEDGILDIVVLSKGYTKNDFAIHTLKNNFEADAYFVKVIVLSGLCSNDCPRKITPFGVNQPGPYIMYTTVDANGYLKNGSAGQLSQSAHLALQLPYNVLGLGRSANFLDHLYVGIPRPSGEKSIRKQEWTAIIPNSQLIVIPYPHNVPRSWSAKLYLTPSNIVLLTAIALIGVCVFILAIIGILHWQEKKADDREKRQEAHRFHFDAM
Assay: co-IP; Myc-beads immunoprecipitation from ITFG1-Myc-transfected and non-transfected HEK 293T cells; Western blot with antibodies against RUVBL1, RUVBL2, α-tubulin, β-tubulin and β-actin

Substance: α-tubulin (human (endogenous in HEK 293T))
- binding: binds

These are yes or no findings as the source states them, for the method shown. Binding seen in cells or lysates may run through a third protein. Binding calls can cover weak binding; strength is not graded here. Sequences can lack the tags named with a protein.
